The results in this text go back to the supplement of paper PMC10735217.

Counter-ions that a name gives are not always drawn. This is one part of the list. This data set is noisy: repeats of one test often differ as much as different tests do.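 The human kidney-derived cells carry a stably integrated construct of eight TEAD-binding elements driving luciferase, read by luminescence in a drug-repurposing library screen. A compound counts as a hit when its signal is more than five robust Z scores above the plate mean.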

This assay concerns HEK293A TEAD-LUC reporter. The assay is described as follows: TEAD-luciferase reporter activity (YAP activation), robust Z score vs plate; higher = stronger YAP/TEAD activation. To be noted: 24 h. On the technique in general: In a reporter assay the amount or activity of a reporter protein is the signal.

Consider `CN1CCN(C2Cc3ccccc3Sc3ccc(Cl)cc32)CC1` (stereo not given) [clorotepine], for which the TEAD-luciferase reporter activity (compound concentration: 2 uM) was inactive: -0.256.
Consider `CN1CCN(C2Cc3ccccc3Sc3ccc(Cl)cc32)CC1` (stereo not given) [(??)-Octoclothepin maleate], for which the TEAD-luciferase reporter activity by setting is: (compound concentration: 200 nM) inactive: 0.547; (compound concentration: 10 uM) inactive: 3.
Taken in the same sequence, the figures for `Nc1[nH]c(=O)ncc1F` were inactive: -0.993 and inactive: 0.0127.
Regarding `Nc1[nH]c(=O)ncc1F` [Flucytosine], the TEAD-luciferase reporter activity (compound concentration: 2 uM) is inactive: -0.234.
As for `CC(C)c1cc(-c2nnc(O)n2-c2ccc3c(ccn3C)c2)c(O)cc1O` [Ganetespib], the TEAD-luciferase reporter activity is inactive: -1.87 (compound concentration: 200 nM) and inactive: -2.49 (compound concentration: 10 uM).
For `CC(C)c1cc(-c2nnc(O)n2-c2ccc3c(ccn3C)c2)c(O)cc1O` [ganetespib], the TEAD-luciferase reporter activity (compound concentration: 2 uM) was inactive: -0.814.
Take `COC(=O)N[C@H](C(=O)N1CC2(CC2)C[C@H]1c1ncc(-c2ccc3c(c2)C(F)(F)c2cc(-c4ccc5nc([C@@H]6[C@H]7CC[C@H](C7)N6C(=O)[C@@H](NC(=O)OC)C(C)C)[nH]c5c4)ccc2-3)[nH]1)C(C)C` [Ledipasvir]: the TEAD-luciferase reporter activity (compound concentration: 200 nM) is inactive: -1.99, the TEAD-luciferase reporter activity (compound concentration: 2 uM) is inactive: -1.38 and the TEAD-luciferase reporter activity (compound concentration: 10 uM) was inactive: 1.25.
The like results for `C=CCCCCCCCCC(=O)O` [10-Undecenoic Acid] were, in that order, inactive: -0.408, inactive: -0.441 and inactive: 2.67.
On to `C[C@]12CCC(=O)C=C1[C@@H]1C[C@@H]1[C@H]1[C@@H]3[C@@H]4C[C@@H]4[C@@]4(CCC(=O)O4)[C@@]3(C)CC[C@@H]12`, for which the TEAD-luciferase reporter activity by setting is: (compound concentration: 200 nM) inactive: 0.855; (compound concentration: 2 uM) inactive: -0.744; (compound concentration: 10 uM) inactive: 0.401.
Taken in the same sequence, the figures for `CCCCc1nc(Cl)c(CO)n1Cc1ccc(-c2ccccc2-c2nnn[nH]2)cc1` [Allisartan] were inactive: -0.535, inactive: 0.00776 and inactive: 0.0785.
Taken in the same sequence, the figures for `C[C@@H]1CN(c2ncc(C(O)CO)cc2Cl)CCN1c1nc2c(-c3cc(F)c(F)c(F)c3)cc(C(F)(F)F)cc2[nH]1` (stereo not given in full) were inactive: -2.05, inactive: -0.297 and inactive: -1.74.
The like results for `COc1ccc(CNC(=O)c2cc(-c3cncc(Cl)c3)cnc2-c2ccccn2)nc1OC` were, in that order, inactive: 1.15, inactive: 2.41 and inactive: -1.13.
`C/C(=C(/OCCOc1ccc(Cl)cc1)c1ccc(Cl)cc1Cl)n1ccnc1`: the TEAD-luciferase reporter activity reads like this: (compound concentration: 200 nM) inactive: -2.19; (compound concentration: 2 uM) inactive: 0.168; (compound concentration: 10 uM) inactive: 1.84.
As for `Oc1cc(O)cc(O)c1` [Phloroglucinol], the TEAD-luciferase reporter activity is, setting by setting: (compound concentration: 200 nM) inactive: -0.143; (compound concentration: 2 uM) inactive: -0.892; (compound concentration: 10 uM) inactive: -1.46.
Taken in the same sequence, the figures for `Nc1ccc(C2=NNC(=O)CC2)cc1` were inactive: 1.09, inactive: -1.67 and inactive: 0.421.
With `C=C[C@]1(C)C[C@@H](OC(=O)CS[C@H]2CCCN(C(=O)[C@H](N)C(C)C)C2)C2(C)[C@H](C)CC[C@]3(CCC(=O)[C@@H]23)[C@@H](C)[C@@H]1O`, the TEAD-luciferase reporter activity (compound concentration: 200 nM) is inactive: -2.72, the TEAD-luciferase reporter activity (compound concentration: 2 uM) was inactive: -1.68 and the TEAD-luciferase reporter activity (compound concentration: 10 uM) is inactive: -0.863.
Taken in the same sequence, the figures for `O=C(Nc1cc(C(F)(F)F)ccc1C(F)(F)F)c1cc(Br)ccc1O` were inactive: 2.43, inactive: -1.47 and inactive: 0.221.
The like results for `COc1ccnc(CS(=O)c2nc3cc(OC(F)F)ccc3[nH]2)c1OC` (stereo not given) [pantoprazole sodium] were, in that order, inactive: 0.576, inactive: -1.3 and inactive: 0.537.
Taken in the same sequence, the figures for `CCc1ccc(CSc2ccc(NS(=O)(=O)c3ccc(C)c(C(=O)O)c3)cc2)cc1` were inactive: -1.09, inactive: -0.332 and inactive: -1.02.
For `NC(=O)NC1N=C([O][Al]([OH])[OH])NC1=O` (stereo not given), the TEAD-luciferase reporter activity is, setting by setting: (compound concentration: 200 nM) inactive: -0.445; (compound concentration: 10 uM) inactive: 0.965.
Take `CC(C)C(=O)OC[C@H]1O[C@@H](n2ccc(N)nc2=O)[C@](C)(F)[C@@H]1OC(=O)C(C)C` [mericitabine]: the TEAD-luciferase reporter activity (compound concentration: 200 nM) is inactive: -0.225, the TEAD-luciferase reporter activity (compound concentration: 2 uM) was inactive: 1.26 and the TEAD-luciferase reporter activity (compound concentration: 10 uM) is inactive: 1.67.
Consider `O=C1NCc2ccccc2CC12CCCN2CC1CC=CCC1` (stereo not given), for which the TEAD-luciferase reporter activity by setting is: (compound concentration: 200 nM) inactive: -0.38; (compound concentration: 10 uM) inactive: -0.691.
Regarding `CC(=O)OCC(=O)[C@@]1(O)CC[C@H]2[C@@H]3C[C@H](C)C4=CC(=O)C=CC4(C)[C@H]3[C@@H](O)CC21C` (stereo not given in full) [Methylprednisolone acetate], the TEAD-luciferase reporter activity (compound concentration: 200 nM) is inactive: 0.534, the TEAD-luciferase reporter activity (compound concentration: 2 uM) was inactive: 1.35 and the TEAD-luciferase reporter activity (compound concentration: 10 uM) is inactive: 1.93.
The like results for `CN1CCN(CC(=O)[C@@]2(O)CC[C@H]3[C@@H]4CCC5=CC(=O)C=C[C@]5(C)[C@H]4[C@@H](O)C[C@@]32C)CC1` were, in that order, inactive: -0.885, inactive: -0.747 and inactive: 0.275.
In the case of `Nc1ncc(-c2cnn(CCO)c2)c2scc(-c3ccc(NC(=O)Nc4cccc(F)c4)cc3)c12`, the TEAD-luciferase reporter activity was inactive: 2.27 (compound concentration: 200 nM), inactive: -2.17 (compound concentration: 2 uM) and inactive: -0.803 (compound concentration: 10 uM).
Taken in the same sequence, the figures for `COc1ccc2c(Oc3ccc(OCCN4CCCCC4)cc3)c(-c3ccc(S(C)(=O)=O)cc3)ccc2c1` were inactive: -0.981, inactive: -1.89 and inactive: -1.4.
Take `O=C(N[C@@H](Cc1ccc(-c2ccccc2)cc1)C(=O)O)c1ccc(-c2ccc(C(F)(F)F)cc2)cc1`: the TEAD-luciferase reporter activity is inactive: -1.93 (compound concentration: 200 nM), inactive: -0.851 (compound concentration: 2 uM) and inactive: 3.97 (compound concentration: 10 uM).
